Reference: publication PMC5342411
These are yes or no findings as the source states them, for the method shown. In cells and extracts the contact can be indirect. Some results given as binding are weak or reduced against the parent protein; the word gives no strength.

Chains of the proteins cited; added tags and fusions are not shown.
UniProt P63104: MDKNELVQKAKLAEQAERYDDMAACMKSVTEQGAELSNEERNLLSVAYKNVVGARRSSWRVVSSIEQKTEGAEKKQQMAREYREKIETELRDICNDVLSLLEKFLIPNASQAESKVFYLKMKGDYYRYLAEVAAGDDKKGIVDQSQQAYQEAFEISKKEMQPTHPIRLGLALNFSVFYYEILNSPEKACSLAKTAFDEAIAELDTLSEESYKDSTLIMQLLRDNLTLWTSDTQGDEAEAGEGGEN

Molecular target: 14-3-3ζ (human (endogenous in CCA tissues, TFK-1 and HuCCT1)) (UniProt P63104)
Test: co-IP; endogenous proteins in RIPA lysates of CCA tissues and TFK-1 and HuCCT1 cells; 1 mg total protein pre-cleared with rabbit IgG and protein A+G agarose; precipitated with anti-aPKC-ι or anti-14-3-3ζ antibody overnight at 4°C; washed 5 times with RIPA lysis buffer; Western blot with the other antibody; rabbit IgG as negative control

B1: atypical protein kinase C-ι (protein, UniProt P41743 1-596)
chain: MPTQRDSSTMSHTVAGGGSGDHSHQVRVKAYYRGDIMITHFEPSISFEGLCNEVRDMCSFDNEQLFTMKWIDEEGDPCTVSSQLELEEAFRLYELNKDSELLIHVFPCVPERPGMPCPGEDKSIYRRGARRWRKLYCANGHTFQAKRFNRRAHCAICTDRIWGLGRQGYKCINCKLLVHKKCHKLVTIECGRHSLPQEPVMPMDQSSMHSDHAQTVIPYNPSSHESLDQVGEEKEAMNTRESGKASSSLGLQDFDLLRVIGRGSYAKVLLVRLKKTDRIYAMKVVKKELVNDDEDIDWVQTEKHVFEQASNHPFLVGLHSCFQTESRLFFVIEYVNGGDLMFHMQRQRKLPEEHARFYSAEISLALNYLHERGIIYRDLKLDNVLLDSEGHIKLTDYGMCKEGLRPGDTTSTFCGTPNYIAPEILRGEDYGFSVDWWALGVLMFEMMAGRSPFDIVGSSDNPDQNTEDYLFQVILEKQIRIPRSLSVKAASVLKSFLNKDPKERLGCHPQTGFADIQGHPFFRNVDWDMMEQKQVVPPFKPNISGEFGLDNFDSQFTNEPVQLTPDDDDIVRKIDQSEFEGFEYINPLLMSAEECV
binding: binds
